Experimental data: publication doi:10.1101/2020.02.21.958371
Results are given in words; binding and its absence hold for the method and conditions named. Binding calls can cover weak binding; strength is not graded here. Sequences can lack the tags named with a protein. For some assays here: Binding seen in cells or lysates may run through a third protein. Blank lines part the entries; values can stand above or below the molecule they belong to.

Key:
[1] = biological target: T1, ROS1, split luciferase fusion (Arabidopsis) (UniProt Q9SJQ6); test: split reporter
T1 sequence: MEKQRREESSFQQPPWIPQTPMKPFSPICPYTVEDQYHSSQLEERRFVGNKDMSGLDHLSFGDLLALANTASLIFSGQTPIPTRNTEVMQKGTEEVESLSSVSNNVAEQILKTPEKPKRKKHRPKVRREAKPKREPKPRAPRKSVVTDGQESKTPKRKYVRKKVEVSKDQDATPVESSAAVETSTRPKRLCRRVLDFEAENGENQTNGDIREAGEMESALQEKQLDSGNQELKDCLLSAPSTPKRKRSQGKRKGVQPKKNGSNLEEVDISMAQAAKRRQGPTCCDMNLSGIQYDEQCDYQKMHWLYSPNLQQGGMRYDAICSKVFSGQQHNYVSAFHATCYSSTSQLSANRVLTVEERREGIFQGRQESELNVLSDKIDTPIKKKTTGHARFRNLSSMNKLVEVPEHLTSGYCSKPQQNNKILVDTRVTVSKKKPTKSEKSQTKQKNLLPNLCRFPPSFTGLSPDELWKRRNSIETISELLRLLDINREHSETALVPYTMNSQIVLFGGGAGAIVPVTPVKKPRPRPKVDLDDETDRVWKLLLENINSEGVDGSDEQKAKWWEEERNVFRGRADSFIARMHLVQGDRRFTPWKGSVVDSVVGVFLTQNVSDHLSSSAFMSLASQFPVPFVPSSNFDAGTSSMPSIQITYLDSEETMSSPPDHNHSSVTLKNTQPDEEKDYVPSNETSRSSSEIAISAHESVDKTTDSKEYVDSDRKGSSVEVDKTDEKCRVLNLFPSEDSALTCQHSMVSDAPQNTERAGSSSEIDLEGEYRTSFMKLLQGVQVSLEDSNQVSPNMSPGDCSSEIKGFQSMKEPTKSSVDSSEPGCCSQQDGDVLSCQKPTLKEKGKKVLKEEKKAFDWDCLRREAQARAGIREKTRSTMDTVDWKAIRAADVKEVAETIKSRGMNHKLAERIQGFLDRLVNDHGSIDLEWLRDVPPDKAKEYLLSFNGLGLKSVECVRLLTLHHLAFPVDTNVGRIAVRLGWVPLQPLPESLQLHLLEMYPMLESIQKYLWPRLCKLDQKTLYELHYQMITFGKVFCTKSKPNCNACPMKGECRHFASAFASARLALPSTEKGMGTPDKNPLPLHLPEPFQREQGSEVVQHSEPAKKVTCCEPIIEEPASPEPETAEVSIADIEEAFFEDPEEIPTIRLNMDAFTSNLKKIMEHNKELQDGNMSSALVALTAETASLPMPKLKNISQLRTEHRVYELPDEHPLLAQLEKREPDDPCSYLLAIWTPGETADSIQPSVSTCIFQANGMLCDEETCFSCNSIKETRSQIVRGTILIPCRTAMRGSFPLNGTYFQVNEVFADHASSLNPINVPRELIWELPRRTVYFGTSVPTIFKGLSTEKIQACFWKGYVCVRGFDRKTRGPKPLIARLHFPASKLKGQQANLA

[2] = biological target: T2, ROS1, split YFP fusion (BiFC) (Arabidopsis) (UniProt Q9SJQ6); test: split reporter
T2 sequence: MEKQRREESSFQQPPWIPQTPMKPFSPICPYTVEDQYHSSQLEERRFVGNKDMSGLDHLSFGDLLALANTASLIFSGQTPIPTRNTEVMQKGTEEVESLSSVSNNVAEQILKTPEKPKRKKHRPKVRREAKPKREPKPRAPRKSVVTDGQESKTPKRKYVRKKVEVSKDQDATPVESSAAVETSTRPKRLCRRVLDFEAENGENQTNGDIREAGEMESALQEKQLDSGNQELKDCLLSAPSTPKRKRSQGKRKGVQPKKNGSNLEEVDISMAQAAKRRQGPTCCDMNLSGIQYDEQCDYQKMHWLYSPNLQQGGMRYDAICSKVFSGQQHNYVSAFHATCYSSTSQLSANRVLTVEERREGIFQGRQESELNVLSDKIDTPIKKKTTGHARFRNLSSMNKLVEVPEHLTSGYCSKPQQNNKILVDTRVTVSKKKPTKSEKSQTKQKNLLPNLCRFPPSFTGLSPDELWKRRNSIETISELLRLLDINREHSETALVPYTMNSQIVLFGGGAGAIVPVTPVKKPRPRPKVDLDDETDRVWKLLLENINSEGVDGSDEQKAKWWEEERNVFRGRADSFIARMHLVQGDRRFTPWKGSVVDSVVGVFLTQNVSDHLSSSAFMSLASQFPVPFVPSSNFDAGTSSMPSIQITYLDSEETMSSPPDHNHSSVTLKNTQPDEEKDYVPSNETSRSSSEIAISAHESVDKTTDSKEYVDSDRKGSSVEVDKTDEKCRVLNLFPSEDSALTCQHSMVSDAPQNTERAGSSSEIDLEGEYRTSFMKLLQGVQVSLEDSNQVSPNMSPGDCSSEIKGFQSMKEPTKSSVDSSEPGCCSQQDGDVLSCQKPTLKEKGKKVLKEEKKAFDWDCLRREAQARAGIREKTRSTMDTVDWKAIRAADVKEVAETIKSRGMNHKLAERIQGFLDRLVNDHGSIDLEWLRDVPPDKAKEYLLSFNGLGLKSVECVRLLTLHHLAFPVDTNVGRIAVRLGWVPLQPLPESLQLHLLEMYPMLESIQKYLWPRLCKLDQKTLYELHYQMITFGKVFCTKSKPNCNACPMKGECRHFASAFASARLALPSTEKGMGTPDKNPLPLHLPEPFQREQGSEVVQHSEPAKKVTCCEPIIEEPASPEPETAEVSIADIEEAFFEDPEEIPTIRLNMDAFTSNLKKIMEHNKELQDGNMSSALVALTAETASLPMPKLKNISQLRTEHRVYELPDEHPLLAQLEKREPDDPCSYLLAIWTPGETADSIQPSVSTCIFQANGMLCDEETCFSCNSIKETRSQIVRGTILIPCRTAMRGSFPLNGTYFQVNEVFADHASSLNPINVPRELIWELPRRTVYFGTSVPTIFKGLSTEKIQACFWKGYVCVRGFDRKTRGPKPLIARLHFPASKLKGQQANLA

[3] = biological target: T3, REPRESSOR OF … 1 (ROS1), yeast two-hybrid fusion (Arabidopsis) (UniProt Q9SJQ6); test: two-hybrid
T3 sequence: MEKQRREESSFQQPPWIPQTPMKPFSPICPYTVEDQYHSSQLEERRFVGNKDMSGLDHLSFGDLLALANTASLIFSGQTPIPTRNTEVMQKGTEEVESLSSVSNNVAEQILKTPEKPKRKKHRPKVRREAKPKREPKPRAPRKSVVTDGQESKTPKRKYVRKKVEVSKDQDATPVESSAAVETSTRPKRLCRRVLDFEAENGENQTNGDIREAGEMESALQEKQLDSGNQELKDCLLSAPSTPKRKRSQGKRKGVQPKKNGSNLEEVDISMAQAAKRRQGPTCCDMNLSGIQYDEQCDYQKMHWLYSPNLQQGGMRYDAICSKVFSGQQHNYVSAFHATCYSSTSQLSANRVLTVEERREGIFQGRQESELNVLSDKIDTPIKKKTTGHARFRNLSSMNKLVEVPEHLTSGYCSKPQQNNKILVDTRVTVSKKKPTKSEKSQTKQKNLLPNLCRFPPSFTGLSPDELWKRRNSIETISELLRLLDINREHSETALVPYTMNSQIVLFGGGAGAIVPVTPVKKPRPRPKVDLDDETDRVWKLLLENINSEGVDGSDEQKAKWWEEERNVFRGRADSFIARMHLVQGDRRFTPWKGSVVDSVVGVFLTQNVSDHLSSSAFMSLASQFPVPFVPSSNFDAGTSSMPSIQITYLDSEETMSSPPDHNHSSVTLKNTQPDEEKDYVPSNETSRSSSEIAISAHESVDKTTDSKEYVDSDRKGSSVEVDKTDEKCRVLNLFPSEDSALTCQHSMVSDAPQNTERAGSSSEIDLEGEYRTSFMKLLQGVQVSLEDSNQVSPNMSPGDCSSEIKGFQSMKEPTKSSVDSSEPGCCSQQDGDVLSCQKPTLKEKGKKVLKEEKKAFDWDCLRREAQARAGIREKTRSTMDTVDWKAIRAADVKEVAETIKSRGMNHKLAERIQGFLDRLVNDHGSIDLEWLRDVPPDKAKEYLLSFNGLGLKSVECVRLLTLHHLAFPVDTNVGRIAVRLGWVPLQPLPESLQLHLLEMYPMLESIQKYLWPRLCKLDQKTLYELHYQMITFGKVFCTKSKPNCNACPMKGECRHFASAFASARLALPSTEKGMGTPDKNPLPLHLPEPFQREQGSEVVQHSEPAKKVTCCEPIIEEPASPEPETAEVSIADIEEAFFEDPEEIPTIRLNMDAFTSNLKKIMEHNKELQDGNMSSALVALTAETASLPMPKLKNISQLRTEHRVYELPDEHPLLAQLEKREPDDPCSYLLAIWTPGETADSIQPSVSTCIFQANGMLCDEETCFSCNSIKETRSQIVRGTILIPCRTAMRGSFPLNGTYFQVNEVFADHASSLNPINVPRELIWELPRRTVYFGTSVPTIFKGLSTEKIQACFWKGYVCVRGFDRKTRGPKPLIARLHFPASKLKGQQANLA

[4] = biological target: ROS1-associated WD40 domain-containing protein (RWD40), yeast two-hybrid fusion (Arabidopsis); test: two-hybrid

Molecule: RMB1, split luciferase fusion (Arabidopsis)
- binding [1]: no binding

Molecule: RWD40, split luciferase fusion (Arabidopsis)
- binding [1]: binds

Molecule: RHD1, split luciferase fusion (Arabidopsis)
- binding [1]: no binding

Molecule: RWD40, split YFP fusion (BiFC) (Arabidopsis)
- binding [2]: binds

Molecule: ROS1-associated WD40 domain-containing protein (RWD40), yeast two-hybrid fusion (Arabidopsis)
- binding [3]: binds

B3: ROS1 ELD (EAR-like Domain) domain (amino acid residues 41 to 100), yeast two-hybrid fusion (domain or fragment, UniProt Q9SJQ6 41-100)
chain: QLEERRFVGNKDMSGLDHLSFGDLLALANTASLIFSGQTPIPTRNTEVMQKGTEEVESLS
- binding [4]: binds

Results, then the molecule that gave them:

- binding [2]: no binding
Molecule: RMB1, split YFP fusion (BiFC) (Arabidopsis)

- binding [3]: no binding
Molecule: ROS1-associated methyl-DNA binding protein 1 (RMB1), yeast two-hybrid fusion (Arabidopsis)

- binding [2]: no binding
Molecule: RHD1, split YFP fusion (BiFC) (Arabidopsis)

- binding [4]: binds
B1: ROS1 N-terminal half (amino acid residues 1 to 696), yeast two-hybrid fusion (domain or fragment, UniProt Q9SJQ6 1-696)
chain: MEKQRREESSFQQPPWIPQTPMKPFSPICPYTVEDQYHSSQLEERRFVGNKDMSGLDHLSFGDLLALANTASLIFSGQTPIPTRNTEVMQKGTEEVESLSSVSNNVAEQILKTPEKPKRKKHRPKVRREAKPKREPKPRAPRKSVVTDGQESKTPKRKYVRKKVEVSKDQDATPVESSAAVETSTRPKRLCRRVLDFEAENGENQTNGDIREAGEMESALQEKQLDSGNQELKDCLLSAPSTPKRKRSQGKRKGVQPKKNGSNLEEVDISMAQAAKRRQGPTCCDMNLSGIQYDEQCDYQKMHWLYSPNLQQGGMRYDAICSKVFSGQQHNYVSAFHATCYSSTSQLSANRVLTVEERREGIFQGRQESELNVLSDKIDTPIKKKTTGHARFRNLSSMNKLVEVPEHLTSGYCSKPQQNNKILVDTRVTVSKKKPTKSEKSQTKQKNLLPNLCRFPPSFTGLSPDELWKRRNSIETISELLRLLDINREHSETALVPYTMNSQIVLFGGGAGAIVPVTPVKKPRPRPKVDLDDETDRVWKLLLENINSEGVDGSDEQKAKWWEEERNVFRGRADSFIARMHLVQGDRRFTPWKGSVVDSVVGVFLTQNVSDHLSSSAFMSLASQFPVPFVPSSNFDAGTSSMPSIQITYLDSEETMSSPPDHNHSSVTLKNTQPDEEKDYVPSNETSRSSSEIAIS

- binding [4]: no binding
B2: ROS1 C-terminal half (amino acid residues 697 to 1393), yeast two-hybrid fusion (domain or fragment, UniProt Q9SJQ6 697-1393)
chain: AHESVDKTTDSKEYVDSDRKGSSVEVDKTDEKCRVLNLFPSEDSALTCQHSMVSDAPQNTERAGSSSEIDLEGEYRTSFMKLLQGVQVSLEDSNQVSPNMSPGDCSSEIKGFQSMKEPTKSSVDSSEPGCCSQQDGDVLSCQKPTLKEKGKKVLKEEKKAFDWDCLRREAQARAGIREKTRSTMDTVDWKAIRAADVKEVAETIKSRGMNHKLAERIQGFLDRLVNDHGSIDLEWLRDVPPDKAKEYLLSFNGLGLKSVECVRLLTLHHLAFPVDTNVGRIAVRLGWVPLQPLPESLQLHLLEMYPMLESIQKYLWPRLCKLDQKTLYELHYQMITFGKVFCTKSKPNCNACPMKGECRHFASAFASARLALPSTEKGMGTPDKNPLPLHLPEPFQREQGSEVVQHSEPAKKVTCCEPIIEEPASPEPETAEVSIADIEEAFFEDPEEIPTIRLNMDAFTSNLKKIMEHNKELQDGNMSSALVALTAETASLPMPKLKNISQLRTEHRVYELPDEHPLLAQLEKREPDDPCSYLLAIWTPGETADSIQPSVSTCIFQANGMLCDEETCFSCNSIKETRSQIVRGTILIPCRTAMRGSFPLNGTYFQVNEVFADHASSLNPINVPRELIWELPRRTVYFGTSVPTIFKGLSTEKIQACFWKGYVCVRGFDRKTRGPKPLIARLHFPASKLKGQQANLA
